From PMC4731787, “Structural basis for the recognition of two consecutive mutually interacting DPF motifs by the SGIP1 μ homology domain” (Scientific Reports, 2016) come the findings set out here.

In the data set the test system is α-adaptin appendage domain (residues 711 to 955). Briefly: ITC of Eps15 fragments with the α-adaptin appendage domain. To be noted: single-site model, ± 68.3% confidence interval. The format is binding, human.

For the molecule “Eps15-661–720: Eps15 fragment spanning residues 661 to 720, 4 DPF motifs (QSTDPFATSSTDPFSAANNSSITSVETLKHNDPFAPGGTVVAASDSATDPFASVFGNESF; UniProt P42566 661-720, looked up, fragment)”, the “N (binding ratio of Eps15 fragment to α-adaptin appendage domain)” value stood at 0.47 ± 0.04.

B1: Eps15-661–790 (domain or fragment, human, UniProt P42566-1 661-790, looked up)
chain: QSTDPFATSSTDPFSAANNSSITSVETLKHNDPFAPGGTVVAASDSATDPFASVFGNESFGGGFADFSTLSKVNNEDPFRSATSSSVSNVVITKNVFEETSVKSEDEPPALPPKIGTPTRPCPLPPGKRS
notes: Eps15, human, residues 661-790 (limits from the fragment's name); source: E. coli, purified in the same manner as for the SGIP1 μHD
As to B1, the “N (binding ratio of Eps15 fragment to α-adaptin appendage domain)” value is 1.19 ± 0.01.
